# Results from one PubChem assay

Data taken from PubChem BioAssay AID1347167, deposited by NCATS (2019).

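Vero cell viability measured by CellTiter Glo luminescence after compound exposure, as a cytotoxicity counter-screen for Zika protease hits; exposure time not clearly stated. Compounds were titrated from about 0.029 µM to 57 µM, with most series topping out near 45.9 µM. Potency is the fitted concentration giving half-maximal cell killing; lower values mean stronger cytotoxicity. Calls come from curve class and activity score: 40–100 is active, 1–39 is inconclusive (weak, partial or top-dose-only effects), and flat class-4 curves are inactive.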

Values are in µM. All entries here are filed as inconclusive. Only part of the assay is shown, chiefly results filed as inconclusive. A potency from a partial, single-point or poor curve is only a rough figure. Activity scores are not listed here.

| structure | potency (µM) | curve |
|---|---|---|
| `O=C(O)Cc1cccc(OCCCN(Cc2cccc(C(F)(F)F)c2Cl)CC(c2ccccc2)c2ccccc2)c1` | 36.92 | cytotoxic, single point |
| `CC(C)=CCc1c2c(c3occ(-c4ccc(O)c(O)c4)c(=O)c3c1O)C=CC(C)(C)O2` | 11.71 | cytotoxic, partial curve |
| `Cc1cc(OCCCc2c(C(=O)O)n(Cc3cccnc3)c3c(-c4c(COc5ccc(N6CCN([S+](C)(=O)[O-])CC6)cc5)nn(C)c4C)cccc23)cc(C)c1Cl` | 32.91 | cytotoxic, single point |
| `CO[C@H]1C[C@@H](O[C@@H]2/C(C)=C/C[C@@H]3C[C@@H](C[C@]4(CC[C@H](C)[C@@H](C5CCCCC5)O4)O3)OC(=O)[C@@H]3C=C(C)/C(=N/O)[C@H]4OC/C(=C\C=C\[C@@H]2C)[C@]43O)O[C@@H](C)[C@H]1O` | 32.91 | cytotoxic, single point |
| `O=C1NC(=O)/C(=C/c2ccc3c(c2)OC(F)(F)O3)S1` | 32.99 | cytotoxic, single point |
| `O=C1c2c(O)ccc([N+](=O)[O-])c2C(=O)c2c([N+](=O)[O-])ccc(O)c21` | 60.2 | cytotoxic, single point |
| `CC(C)c1onc(-c2c(Cl)cccc2Cl)c1COc1ccc(/C=C/c2cccc(C(=O)O)c2)c(Cl)c1` | 32.91 | cytotoxic, single point |
| `O=C1NC(=O)/C(=C/c2ccc(-c3ccc(F)cc3O)o2)S1` | 26.21 | cytotoxic, single point |
| `Cc1noc(-c2ccc(-c3ccc(CC(=O)O)cc3)cc2)c1NC(=O)O[C@H](C)c1ccccc1Cl` | 2.621 | cytotoxic, full curve, poor fit |
| `CC(=O)Oc1cc2c(c(C)c1OC(C)=O)CC=C1[C@@]2(C)CC[C@@]2(C)[C@H]3C[C@](C)(C(=O)O)CC[C@]3(C)CC[C@]12C` | 29.33 | cytotoxic, single point |

For reference, 2 entries once more:

structure,potency (µM),curve
O=C1NC(=O)/C(=C/c2ccc3c(c2)OC(F)(F)O3)S1,32.99,"cytotoxic, single point"
CO[C@H]1C[C@@H](O[C@@H]2/C(C)=C/C[C@@H]3C[C@@H](C[C@]4(CC[C@H](C)[C@@H](C5CCCCC5)O4)O3)OC(=O)[C@@H]3C=C(C)/C(=N/O)[C@H]4OC/C(=C\C=C\[C@@H]2C)[C@]43O)O[C@@H](C)[C@H]1O,32.91,"cytotoxic, single point"